Over roughly 33,000 sequences, “E-score (-0.5 to 0.5)” has its median near -0.015; the highest 2% begin near 0.3. Some of the results follow.
Target: T1, Abf1 (UniProt P14164)
T1 sequence: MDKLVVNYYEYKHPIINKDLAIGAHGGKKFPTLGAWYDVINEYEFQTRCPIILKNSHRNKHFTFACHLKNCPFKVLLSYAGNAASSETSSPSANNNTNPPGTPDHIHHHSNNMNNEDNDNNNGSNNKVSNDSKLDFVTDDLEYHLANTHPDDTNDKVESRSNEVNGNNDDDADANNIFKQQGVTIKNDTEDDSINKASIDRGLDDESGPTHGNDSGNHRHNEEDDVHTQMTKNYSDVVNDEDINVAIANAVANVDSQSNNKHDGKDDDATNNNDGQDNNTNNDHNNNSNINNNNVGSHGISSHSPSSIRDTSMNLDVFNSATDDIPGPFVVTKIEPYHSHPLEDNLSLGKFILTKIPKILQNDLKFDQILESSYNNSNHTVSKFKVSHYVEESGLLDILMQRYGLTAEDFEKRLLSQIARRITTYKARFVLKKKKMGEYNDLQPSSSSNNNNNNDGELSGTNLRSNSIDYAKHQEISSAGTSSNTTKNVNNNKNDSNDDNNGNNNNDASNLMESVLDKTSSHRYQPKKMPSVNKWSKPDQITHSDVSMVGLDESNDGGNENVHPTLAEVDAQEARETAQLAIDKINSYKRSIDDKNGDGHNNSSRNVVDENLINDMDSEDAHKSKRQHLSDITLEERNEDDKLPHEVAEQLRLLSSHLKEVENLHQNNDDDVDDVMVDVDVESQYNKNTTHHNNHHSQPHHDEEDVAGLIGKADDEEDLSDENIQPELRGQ
Experiment: PBM E-score (8-mer binding enrichment) (E-score (-0.5 to 0.5)); higher = stronger / more preferred TF binding
Conditions: protein concentration: 200 nM; construct: GST-full length
In short: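 Full-length yeast transcription factors or their DNA-binding domains, GST-tagged and expressed with PURExpress, were applied at about 100-200 nM to universal all-10-mer Agilent arrays. These arrays had been made double-stranded by primer extension on fresh or once-stripped slides. Detection used fluorescent anti-GST, normalisation used masliner, and E-scores for ungapped eight-base words pooled with reverse complements came from the Universal PBM Analysis Suite.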

Sequence	PBM E-score
ACACTCGC	0.113
ACAGAGAC	0.0071
CGCTAAGC	0.109
AGTCATTA	0.037
AGGACTGA	0.00596
GCCAATCA	-0.138
GAGGCAGC	-0.302
GAGTTGGA	-0.0192
GACATCCA	-0.0512
GTAGGTCA	0.0845
CGGTGGTA	0.025
CATATCGC	0.253
GGGGGAAC	-0.408
ACCTGCAC	-0.109
AAACCACG	0.0243
CCCGAGAC	-0.0393
GAAATTGC	-0.0782
GGTTACAC	0.11
ATTTGACG	0.2
ATCAGATG	-0.104
GAACCCAA	0.103
GCAACTCC	-0.257
CCTCCCTC	-0.157
AATGCGGC	-0.00373
CGTGATAC	0.23

Sequence	PBM E-score
GGATCTCA	0.0604
GTATGGGA	0.0144
AGGTAGAC	-0.249
ATAGGGTC	-0.135
GACTTCTC	0.167
CATTGTCA	0.185
CGAAAGCA	0.0505
TGCACCCA	0.0213
CAACGTGG	0.0349
CCAACCCC	-0.224
ACCATTAC	0.0428
TATATCGA	0.171
GAGCGGAC	-0.162
ATTCACTA	-0.00796
GTGTACCA	0.125
CCAGGACC	-0.2
CTCGCGTA	-0.194
GATGTGGC	-0.167
ATCTGGGG	-0.181
AAAGCCCT	-0.187
GCGTCCCA	-0.0154
TAGTATAA	0.269
CGTAAGAC	0.104
AACCTCCG	-0.13
TGAAACAA	0.0794

Sequence	PBM E-score
TACGCAGA	0.00755
CCCTGAGA	-0.214
ATCCATGC	-0.0117
CCAACGTA	0.2
GGACAACC	-0.0223
CGAGGCCC	-0.159
CTAACGAC	0.263
AAGATCCG	-0.132
GGTTTAGA	-0.152
ACTGTGCC	-0.0642
ATACGGCA	0.376
AACACTAG	0.151
ACGTGTAT	0.0345
CTAGATAA	0.109
ATCCTCTG	-0.0885
AATTGCAT	-0.017
CCGCGCTA	0.0165
ATATCAAT	0.204
ACATCTGA	-0.0545
GCGATACA	0.139
ATGGCCCC	-0.268
CGAAGTAA	0.0902
AGGGATGA	0.0956
CAGAATTA	-0.156
CAGTGGCA	-0.234

Sequence	PBM E-score
GTTCCATA	-0.104
CAGCAAGG	-0.192
GAGGAAGA	-0.0536
ACAAATGT	0.201
AAATTTCC	0.075
AGTAGGAT	0.0637
AGCTGCAT	-0.0357
CACCTACG	0.0432
ATACTAGA	0.17
TTCCAAAA	0.0928
AACGACTG	0.114
CGCGGGTA	-0.0614
ATGAGTTA	0.0988
ACCTAGTA	-0.0833
AAGATAAG	0.131
ACCTATCA	-0.021
CACGGCGG	0.00732
CTATACGA	0.327
ATATGCTC	0.135
ATACGCAT	0.0882
TTCTGCAA	0.111
AAGGCCCA	-0.0881
AGATCGTG	0.273
CACGCATG	0.00322
CCTGGTCA	-0.0612

Six successive entries already listed, quoted:
Sequence	PBM E-score
AGGTAGAC	-0.249
ATAGGGTC	-0.135
GACTTCTC	0.167
CATTGTCA	0.185
CGAAAGCA	0.0505
TGCACCCA	0.0213

(next part)

Sequence	PBM E-score
AATCATCT	0.184
AAGACTTA	0.0156
AACCGAAA	0.0684
AGTCTGCC	-0.231
AGACCTGC	-0.137
CATACCGA	-0.038
CCCCCAGC	-0.331
GGTCCCAA	-0.136
CGACTGGA	-0.0586
TCTGCCAA	0.0381
GGCCTTAA	0.0402
AAGCAGGA	0.0785
CCATATGG	-0.0604
ATGTGACC	0.0245
ATGAGAGA	-0.0525
CTGAGTCA	0.0134
AACCAAGT	0.179
AGACGATA	0.27
AATGCGGA	-0.0199
TACCGGTA	-0.238
GGGCTGTA	-0.205
ATAGGAGA	-0.169
GGCCGTAA	0.121
AGCTAGAT	0.104
TAGGTTCA	-0.164

Sequence	PBM E-score
CCCCTTGA	-0.179
ATCCACAC	-0.103
TACTTCCA	0.0905
CGTCGGTC	0.0377
AAGTGTCG	0.081
GATGATCA	0.329
GCCATACA	0.0623
ACTAATCG	0.0732
GAGCACGA	0.171
CGCGCTAG	0.1
TGCCTACA	-0.212
ACTAGGGG	-0.143
AATGTAAA	0.204
GTGGTTAA	0.142
GCGGGGAC	-0.161
CGTCGTGC	0.315
AGGTATAA	0.17
GCAGACAC	-0.0656
ATCAAATG	0.122
CCGGAATA	-0.0142
GTTAAGCA	-0.103
GTTAGCTA	-0.222
CGGCATGC	-0.114
AGAATGCA	-0.0484
AACCATGC	0.0503

A second format for some results above.

| Sequence | PBM E-score |
| --- | --- |
| CCCCTTGA | -0.179 |
| AAGTGTCG | 0.081 |
| AATGTAAA | 0.204 |
| CGTCGTGC | 0.315 |
| GCAGACAC | -0.0656 |
| ATCAAATG | 0.122 |
| CCGGAATA | -0.0142 |

Continued:

Sequence	PBM E-score
AGTTAAAC	0.00744
ACGGCCAG	0.212
AAAGTCAA	-0.082
TAAATGAA	-0.0744
GCTCTGAC	-0.0706
CCGGAACA	0.0276
ACCACATG	0.0821
GGCCCAAC	-0.163
CTGCCAAC	0.0337
ACTTAGGC	-0.111
ACCCCGTC	-0.125
CCCGGAGG	-0.341
CACTCTAG	-0.0155
GATCACAC	0.118
CGGTTCCA	-0.112
GCTGTCAC	0.197
AGGGTTTC	-0.165
CCTTATTC	-0.168
ACAACGTA	0.0482
ACACCGCC	-0.25
AGAACGGG	-0.0329
CTGAAAAA	-0.193
CGGCCCCG	0.0002
AGGGTTAC	-0.0529
AAATCAAT	0.142

Sequence	PBM E-score
AACAAGAT	0.133
CAACCGCG	0.0301
CGATGCAC	0.0188
AGTCCAGG	-0.19
GCAGGCAA	-0.1
CTATCTAA	-0.0314
CAAACATC	0.0506
AACGCGCC	-0.248
AAATAGTT	0.0304
TATCAGGA	0.086
ACAGGTAC	-0.146
CCCATTGC	-0.186
GCGGACGC	-0.291
CTCGACTC	-0.0367
ACCTACAA	0.0806
ATGGTAAG	-0.108
GAAATTCC	-0.102
GCGCTCAA	-0.125
CACCCTAA	0.0127
ACAGTTCA	0.11
CATTCTGA	0.0829
GGATGGAC	-0.0851
GTCTGTAA	0.0954
GAACGATC	0.298
TCACTGGA	0.116

Sequence	PBM E-score
CCTCCCGA	-0.188
CTACCCGC	-0.0209
CGCCTCCA	-0.126
ATCACTGC	0.32
AATTCTGG	-0.188
CATCGAAG	0.06
ATTCGTGC	0.173
GATTCGTA	0.262
AACAACCC	-0.06
CTGTCCTA	-0.0805
CCCCTTAG	-0.23
ACTAGTCG	-0.143
CGATTGCA	0.163
ACTCTAAG	-0.156
AAGTGCTG	0.257
TGATAGAA	0.0481
AATGTTGA	-0.163
GATTCTTA	0.235
AAAGGCTT	-0.251
TCTCCAAA	-0.0776
CGCTATCC	0.0588
AGGTCTAC	-0.124
ACTCATTC	-0.102
GTATATTA	0.102
ACTTATTA	0.047

Sequence	PBM E-score
ACCAGTTC	-0.114
CATAAGCG	-0.178
CCTTGGCG	-0.218
CGAATAGA	-0.0743
GCACTCGA	-0.12
CTTCCACC	-0.204
CCGGTACG	0.0211
AGGAGTAA	-0.139
GAGCTTAA	-0.125
GCTGTTCC	-0.237
ATGCTATG	0.102
AAGTTGGC	-0.168
ATCAGGGA	-0.0561
GCCATCCA	-0.171
CGTGTGAC	0.11
CCGGAGAA	-0.225
ATCTAGTA	0.175
GTCCGTAA	0.239
ACGAAACT	0.336
GCGCCCAC	-0.012
AGAGGGCA	-0.0417
ATAGCGAC	0.232
ACATGTCT	-0.0552
AAAGTGAG	0.2
CGCAGCGC	-0.253

Sequence	PBM E-score
ATTCGTCC	0.296
ATATACGA	0.324
ATGACTGA	-0.0877
GAACCGCA	-0.0218
AACCTAGA	0.0342
AAGCAACG	0.0263
GTCTCTTA	-0.0443
CGCATTCA	0.0242
AATGCTAC	0.0314
CTAGTGGA	-0.237
ACGGGTCG	0.0659
ATATCACC	0.438
CGCGCCAA	-0.173
TGAAGGAA	0.153
CCGTTCTA	0.032
CGCATCAG	-0.057
CCGCAACA	-0.0444
ACGAAGCT	0.278
AGAGCCGC	-0.174
ACATTGGA	-0.0535
ATGTAGCC	-0.047
ATTTAATG	0.107
ATGATCAA	0.273
GGTCCTAC	-0.126
CCGGTTAC	-0.0314

Sequence	PBM E-score
ATCAACCA	0.181
CCGAGCCG	-0.181
AGCGCTGA	0.0277
CATGGCAG	-0.141
GCTGATCA	0.139
TATTGAAA	0.0891
ATTCTTGA	0.155
ATTGCCCG	-0.0211
CCCTCACC	-0.153
CGCAAATA	-0.0387
GATTTCAC	0.104
GCCGCCAA	-0.0421
GGGCGTCA	-0.168
ACGAAATC	0.291
AGTCGAAC	0.0892
AGCGATCG	0.154
CAATCGCC	-0.187
ATCAGCAC	0.102
AATTCAAT	0.116
GAACATGC	0.0748
CAACACAA	0.0724
ATAACATG	0.153
AGCGCTGC	-0.0448
ACCCAATA	0.0153
CCGACGCA	-0.271

Sequence	PBM E-score
AACCGGAA	-0.0581
TGGGGTAA	0.043
AATGGGCT	0.0643
GCGCGGCC	-0.205
CATGCGCA	0.0599
ACGCCCTG	-0.103
GCTTTAAA	-0.0185
CCGCGTCG	0.106
AAGAGGGG	-0.225
ATACATAT	0.285
AATGTAAG	0.153
ACGCAGGA	-0.0522
GATAATAC	0.198
AATAAACG	0.0929
AGATATTC	0.0375
ACATCTTG	-0.142
AGCCTCTA	-0.306
CCCACCCC	-0.0982
CAGAGTGC	-0.0102
AACAGGGA	-0.108
CGAATGCA	0.231
AGGAGCAC	-0.0536
CATGTGTA	-0.0484
AGGCCAAG	-0.328
AACCCTAC	-0.301

Sequence	PBM E-score
ATTATACG	0.331
ATGGACCC	0.0136
ACTTGCTG	-0.0416
ACGGCCTC	0.0938
GTTTACAA	0.101
TCCGCCAA	-0.078
CTCATTAC	0.148
GGCATGCA	-0.00804
GGCTCGTA	0.162
CTACCCTA	-0.311
TCCTCTAA	0.0384
TAGGGTGA	0.18
CCAGACAA	-0.304
TACTACGA	0.241
TAACCCGA	0.0021
GACTGCAC	-0.0655
GGTCACAC	-0.152
ACGACTTA	-0.0279
CCGAGTAA	0.0634

Some of the entries so far, bar-delimited:
Sequence | PBM E-score
CCCCTTAG | -0.23
ACTAGTCG | -0.143
CGATTGCA | 0.163
